# Results of single-concentration screens

The chains behind the UniProt entries cited, without tags or fusion partners. Residues count along the entry.
UniProt Q8IDJ8, 1-583: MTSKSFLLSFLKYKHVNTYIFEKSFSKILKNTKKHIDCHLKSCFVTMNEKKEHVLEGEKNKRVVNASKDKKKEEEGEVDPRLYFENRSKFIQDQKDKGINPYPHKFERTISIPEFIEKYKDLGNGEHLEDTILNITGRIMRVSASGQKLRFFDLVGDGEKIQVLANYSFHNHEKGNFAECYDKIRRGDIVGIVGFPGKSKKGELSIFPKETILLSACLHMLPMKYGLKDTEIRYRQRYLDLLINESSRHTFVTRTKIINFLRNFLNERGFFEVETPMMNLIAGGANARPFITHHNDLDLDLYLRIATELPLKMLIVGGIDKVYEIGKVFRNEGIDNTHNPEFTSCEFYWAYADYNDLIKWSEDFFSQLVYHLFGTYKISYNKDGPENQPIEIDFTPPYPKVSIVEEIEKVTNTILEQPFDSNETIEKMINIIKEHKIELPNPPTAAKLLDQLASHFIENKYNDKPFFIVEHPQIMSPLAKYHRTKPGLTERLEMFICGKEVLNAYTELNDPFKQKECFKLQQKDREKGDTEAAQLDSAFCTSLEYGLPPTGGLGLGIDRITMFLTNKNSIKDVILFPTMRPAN
UniProt A4I591, 1-473: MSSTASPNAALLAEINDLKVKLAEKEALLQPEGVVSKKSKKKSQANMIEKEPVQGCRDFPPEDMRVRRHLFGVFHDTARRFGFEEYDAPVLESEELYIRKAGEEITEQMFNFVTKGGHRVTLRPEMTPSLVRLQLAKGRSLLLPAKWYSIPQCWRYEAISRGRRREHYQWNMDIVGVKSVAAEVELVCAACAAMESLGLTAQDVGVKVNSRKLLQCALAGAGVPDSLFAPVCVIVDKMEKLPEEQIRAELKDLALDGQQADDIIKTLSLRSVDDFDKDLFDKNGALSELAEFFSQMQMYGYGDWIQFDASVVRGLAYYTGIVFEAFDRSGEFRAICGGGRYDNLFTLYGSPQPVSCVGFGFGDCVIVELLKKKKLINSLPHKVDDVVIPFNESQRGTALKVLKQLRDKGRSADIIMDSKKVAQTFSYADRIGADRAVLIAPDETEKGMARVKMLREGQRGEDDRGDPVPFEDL

Values are the deposited “Percent Effect”, in %. The record does not define 0% and 100%; most values in the screen are far below 50% and negative numbers occur (in some assays of this library far below -100). The compounds are a random part of those screened. Two or more numbers in one place are separate tests of the same structure; such repeats can differ widely. A dash means the value is not listed here; it may have been measured.

Leishmania in macrophages: 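Cell assay of Leishmania donovani living inside macrophages; the read-out is not stated. Tested at 30 µM. The record gives no direction; compounds that gave an IC50 in retests scored well above the rest, so higher reads as stronger inhibition. Size under these conditions: about 69,000 compounds, about 1,000 of them at 50% or above in at least one test.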
PfKRS1: 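Enzyme assay of the cytosolic lysyl-tRNA synthetase in 384-well plates, read by luminescence. Target: Lysine-tRNA ligase, Plasmodium falciparum 3D7 (UniProt Q8IDJ8). Concentration: 30 µM. Direction is inferred from only a few compounds that gave an IC50; most scored high, so higher reads as stronger inhibition. Of about 69,000 compounds tested this way, about 49 (0.071%) reached 50% or more in at least one test.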
LiHisRS: 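Histidine-tRNA ligase, Leishmania infantum (UniProt A4I591). Enzyme assay of histidyl-tRNA synthetase; the read-out is not stated. Concentration: 30 µM. Direction is inferred from retests: higher values go with stronger inhibition. The assay is labelled LdHisRS but filed under L. infantum. About 69,000 compounds were tested under these conditions; 0.6% (about 410) showed 50% or more at least once.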

structure | Leishmania in macrophages | PfKRS1 | LiHisRS
Cc1c(C(=O)NC2CCCC2)nnn1-c1ccccc1 | 1.851% | 4.504% | 3.922%
Cc1cc(C)n2nc(C(=O)N3CCCC4(CNC(=O)O4)C3)cc2n1 (stereo unspecified) | -29.23% | 11.41% | 17.11%
CC(CCc1ccco1)NC(=O)Nc1cc(C(F)(F)F)c[nH]c1=O (stereo unspecified) | 27.86% | 1.197% | 13.64%
CN(Cc1cccnc1N)Cc1cccc2ncccc12 | 48.64% | 0.7219% | 20.98%
Cc1noc(C)c1C[S+]([O-])Cc1cn2cccc(C)c2n1 (stereo unspecified) | -9.807% | 5.807% | 15.32%
Cc1noc(C(C)N2CCN(c3ncnc4ccccc34)CC2)n1 (stereo unspecified) | -13.38% | 3.03% | 13.22%
COc1ccc(F)c(CN2CC(=O)N(c3ccccc3C)CC2C)c1 (stereo unspecified) | -52% | 2.915% | 31.33%
O=C(CS(=O)(=O)Cc1cccc(Br)c1)Nc1cn[nH]c1 | -8.806% | 2.401% | 19.84%
[H][C@@]12CCN(c3ncccn3)[C@@]1([H])CCN2C(=O)NC1CC1 | 2.696% | - | -
NC(=O)COc1ccc(CN2CC[C@@]3(O)CCCC[C@H]3C2)cc1Cl | - | 0.2538% | 8.889%
c1cnc(NCc2nnn3c2CN(Cc2ccsc2)CCC3)nc1 | - | 1.141% | 27.16%
O=C(c1cc2c(F)cccc2[nH]1)N1CCCCC1Cn1cccn1 (stereo unspecified) | 21.61% | -2.053% | 7.143%
CO[C@H]1CN(C(=O)c2ccnnc2)[C@@H]2COC[C@H]12 | - | 1.411% | 10.91%
COc1ccc2c(ccn2CCC(=O)/N=c2\[nH]nc(C3CCCO3)s2)c1 (stereo unspecified) | -17.29% | 8.763% | 10.87%
CC(C)CCN1C(=O)CC(N(C)Cc2nc3ccccc3c(=O)[nH]2)C1=O (stereo unspecified) | 8.59% | 4.733% | 13.7%
Cc1ccc(NC(=O)NCCCc2n[nH]c(N)c2C#N)cc1 | 32.11% | 4.895% | -25.84%
CC(C)(C)Oc1ccccc1CNC(=O)C1CCCOC1 (stereo unspecified) | 28.55% | 11.24% | 20.97%
Cc1noc([C@H]2COC[C@H]3CN(C(=O)Cc4ccsc4)C[C@H]32)n1 | - | 1.949% | 15.38%
OC[C@H]1CC[C@]2(CC1)CN(Cc1ccccn1)Cc1ccccc1O2 | - | 2.159% | 11.11%
O=C(O)C(F)(F)F.O=C(O)C(F)(F)F.c1cncc(COCc2nnc3n2CCN(Cc2cccs2)C3)c1 | -30.25% | - | -
CN1CC2(CCN(c3ncnc4c3CCNC4)CC2)OC1=O | -11.3% | 4.054% | 38.55%
[H][C@]12CC[C@]([H])(CN(c3ncccn3)C1)N(C(=O)CSCCC)C2 | 20.5% | - | -
COCCN1C(=O)CC[C@@H]2[C@H]1CCN2S(=O)(=O)c1cccs1 | - | -1.872% | 2.703%
COCCn1/c(=N/C(=O)C(C)C)sc2cc(Cl)ccc21 | 5.656% | -4.813% | 3.39%
O=C(O)C(F)(F)F.[H][C@@]12CN(c3cc(OC)ncn3)CCC[C@]1(C(=O)O)CN(C(C)C)C2 | 2.662% & 35.07% | - | -
COc1ccccc1CNC(=O)CN(C)C(C)c1ccncn1 (stereo unspecified) | -50.37% | 5.613% | 18.07%
Cc1cc(C(=O)NCc2cccnc2OC(C)C)no1 | 5.777% | 0.602% | 11.9%
CN(C)CCN1CCOCC2(CCCN(C(=O)Cc3ccccc3)C2)C1.O=C(O)C(F)(F)F.O=C(O)C(F)(F)F (stereo unspecified) | -40% | - | -
CC(NC(=O)NCCCN1CCCC1=O)c1ccc(Cl)s1 (stereo unspecified) | 19.82% | 2.283% | 7.018%
COc1ccc(CN2C[C@H]3CN(Cc4ccncc4)C(=O)[C@H]3C2)cc1 | - | 5.552% | 21.36%
COCc1cccc(NC(C)C(=O)N(C)Cc2ccccc2)c1 (stereo unspecified) | -13.62% | -1.723% | 13.21%
CC(C)N1CCCC(CCCc2ccccn2)(C(=O)O)C1 (stereo unspecified) | 22.32% | -2.687% | 22.22%
CCOC(C)c1nc(CNc2cccc(Cl)c2OC)cs1 (stereo unspecified) | 26.76% | 5.975% | 8.108%
Cc1cnn(CC2CCCCN2C(=O)c2ccccc2-n2cccn2)c1 (stereo unspecified) | 1.01% | 1.336% | 14.04%
CCn1cc(CN2CCCN(C(=O)CCn3cc(C)cn3)CC2)cn1 | 5.756% | 0.4109% | 13.91%
CC(C)[C@H]1CN(Cc2ccccn2)C[C@@H]1NS(=O)(=O)C1CC1 | 10.98% | -0.5104% | 1.408%
CCNC(=O)N1CCC2(CC1)CCn1c(-c3cccc(OC)c3)cnc12 | 25.54% | 2.466% | 22.22%
Cc1cccc(-c2ccc(C(=O)N3CCN(C(C)C)CC3)c(=O)[nH]2)c1 | 21.66% | 5.274% | 12.36%
Cn1nc(-c2ccccc2)c(Cl)c1C(=O)O | 4.923% | 2.473% | 13.16%
c1ccc(OC2COC3(CCN(Cc4ccccn4)CC3)C2)cc1 (stereo unspecified) | - | -2.314% | 15%
O=C(NC1CC1)c1cccc(S(=O)(=O)NCCc2nc(C3CC3)no2)c1 | -33.95% | 4.259% | 9.639%
CC(C)c1ccc(C(=O)N2CCOCC2CC(=O)c2ccco2)cn1 (stereo unspecified) | -12.35% | -14.62% | 4.494%
Cc1n[nH]c(C)c1NC(=O)CN1CCCC1c1noc(C(C)C)n1 (stereo unspecified) | -16.05% | -0.7881% | 0%
Cc1ccsc1CNC(=O)c1ccc(N2CCOC2=O)cc1 | -0.1452% | 4.309% | 12.28%
COc1ccccc1CN1CCN(CCN2CCOC2=O)CC1 | -3.458% | 0.1548% | -3.125%
CSc1ccc(C(=O)C2CCCN(C(=O)CCCn3cncn3)C2)cc1 (stereo unspecified) | 20.8% | 1.509% | 10.59%
O=S(=O)(CCCS(=O)(=O)c1ccc2c(c1)OCCCO2)c1ccccc1 | 27.21% | 4.35% | 12.68%
CCOC(=O)c1sc(NC(=O)CN(C)S(C)(=O)=O)c(C#N)c1C | 20.23% | -1.736% | 16.5%
O=C(CN1CCc2cncnc2C1)N1CCc2sccc2C1 | 25.91% | 5.823% | 33.87%
Cc1ccsc1[C@@H]1CCN(C(=O)CCCn2cncn2)C[C@H]1O | 9.483% | 3.47% | 23.29%
N#Cc1cccc(CN2CC[C@@H]3[C@@H]2CC(=O)N3Cc2ccncc2)c1 | - | 0.4926% | 14%
C[C@@H]1C[C@H](C(F)(F)F)n2nc(C3CCN(S(C)(=O)=O)CC3)cc2N1 | -5.203% | 1.042% | -2%

The last 3 entries again:

structure	Leishmania in macrophages	PfKRS1	LiHisRS
Cc1ccsc1[C@@H]1CCN(C(=O)CCCn2cncn2)C[C@H]1O	9.483%	3.47%	23.29%
N#Cc1cccc(CN2CC[C@@H]3[C@@H]2CC(=O)N3Cc2ccncc2)c1	-	0.4926%	14%
C[C@@H]1C[C@H](C(F)(F)F)n2nc(C3CCN(S(C)(=O)=O)CC3)cc2N1	-5.203%	1.042%	-2%

Measurements from “University of Dundee, Small-Polar-MMV Screening Library” (2021), ChEMBL document CHEMBL3988442.